Measured values from PMC4344513.

B1: wild type Polη stably expressed in XP30RO (XPV) cells [human] / POLD2 endogenous in XPV cells [human (endogenous in XP30RO)] (parent)
chain 1: MATGQDRVVALVDMDCFFVQVEQRQNPHLRNKPCAVVQYKSWKGGGIIAVSYEARAFGVTRSMWADDAKKLCPDLLLAQVRESRGKANLTKYREASVEVMEIMSRFAVIERASIDEAYVDLTSAVQERLQKLQGQPISADLLPSTYIEGLPQGPTTAEETVQKEGMRKQGLFQWLDSLQIDNLTSPDLQLTVGAVIVEEMRAAIERETGFQCSAGISHNKVLAKLACGLNKPNRQTLVSHGSVPQLFSQMPIRKIRSLGGKLGASVIEILGIEYMGELTQFTESQLQSHFGEKNGSWLYAMCRGIEHDPVKPRQLPKTIGCSKNFPGKTALATREQVQWWLLQLAQELEERLTKDRNDNDRVATQLVVSIRVQGDKRLSSLRRCCALTRYDAHKMSHDAFTVIKNCNTSGIQTEWSPPLTMLFLCATKFSASAPSSSTDITSFLSSDPSSLPKVPVTSSEAKTQGSGPAVTATKKATTSLESFFQKAAERQKVKEASLSSLTAPTQAPMSNSPSKPSLPFQTSQSTGTEPFFKQKSLLLKQKQLNNSSVSSPQQNPWSNCKALPNSLPTEYPGCVPVCEGVSKLEESSKATPAEMDLAHNSQSMHASSASKSVLEVTQKATPNPSLLAAEDQVPCEKCGSLVPVWDMPEHMDYHFALELQKSFLQPHSSNPQVVSAVSHQGKRNPKSPLACTNKRPRPEGMQTLESFFKPLTH
chain 2: MFSEQAAQRAHTLLSPPSANNATFARVPVATYTNSSQPFRLGERSFSRQYAHIYATRLIQMRPFLENRAQQHWGSGVGVKKLCELQPEEKCCVVGTLFKAMPLQPSILREVSEEHNLLPQPPRSKYIHPDDELVLEDELQRIKLKGTIDVSKLVTGTVLAVFGSVRDDGKFLVEDYCFADLAPQKPAPPLDTDRFVLLVSGLGLGGGGGESLLGTQLLVDVVTGQLGDEGEQCSAAHVSRVILAGNLLSHSTQSRDSINKAKYLTKKTQAASVEAVKMLDEILLQLSASVPVDVMPGEFDPTNYTLPQQPLHPCMFPLATAYSTLQLVTNPYQATIDGVRFLGTSGQNVSDIFRYSSMEDHLEILEWTLRVRHISPTAPDTLGCYPFYKTDPFIFPECPHVYFCGNTPSFGSKIIRGPEDQTVLLVTVPDFSATQTACLVNLRSLACQPISFSGFGAEDDDLGGLGLGP

Variants of: B1
Assay: proximity ligation assay (PLA) in XPV cells
Details: with POLD2 endogenous in XPV cells [human (endogenous in XP30RO)]; UV-irradiated (20 J/m2), processed after 6 h; CSK-extracted nuclei; positive cell = at least four fluorescent spots; parent: 28.3
chain 1 F483A F484A showed a screen value of 5.7%.

Same assay, conditions: with POLD2 endogenous in XPV cells [human (endogenous in XP30RO)]; non-treated (-UV); CSK-extracted nuclei; positive cell = at least four fluorescent spots; parent: 4.6
chain 1 F483A F484A gave a screen value of 4.1%.
